Patent US12036271B2, “Peptides and combination of peptides as targets or active ingredients for use in immunotherapy against AML and other cancers” (Immatics Biotechnologies GmbH, priority 2016, dated 2024)
For some of these results: For expression read-outs the peptide stands for its source gene, whose mRNA was measured; the gene is not named for every peptide.

system: source genes of the peptides in AML; test: Expression profiling of genes encoding the peptides (RNAseq), tumors vs normal tissues; set-up: species or system human; key: very highly over-expressed in tumors compared to a panel of normal tissues (+++); highly over-expressed in tumors compared to a panel of normal tissues (++); over-expressed in tumors compared to a panel of normal tissues (+); conditions: expression score of source gene, tumors (AML) compared to panel of normal tissues

Row | Substance | Gene Expression
1 | 1: peptide found in GNA15 (gene looked up) (LLDSAVYYL; listed as Homo sapiens) [compound 1] | +++
2 | 5: peptide found in DNTT (gene looked up) (FLYYEDLVSC; listed as Homo sapiens) [compound 5] | +++
3 | 103: peptide found in NLRP3 (gene looked up) (ALGDFGIRL; listed as Homo sapiens) [compound 103] | +++
4 | 63: peptide found in UHRF1 (gene looked up) (RLNDTIQLL; listed as Homo sapiens) [compound 63] | ++
5 | 182: peptide found in GNA15 (gene looked up) (SLSEYDQCL; listed as Homo sapiens) [compound 182] | +++
6 | 4: peptide found in DNTT (gene looked up) (FLPDAFVTM; listed as Homo sapiens) [compound 4] | +++
7 | 41: peptide found in POLQ (gene looked up) (ALFILPFVSV; listed as Homo sapiens) [compound 41] | ++
8 | 165: peptide found in NPR3 (gene looked up) (SLVDRVAAA; listed as Homo sapiens) [compound 165] | ++
9 | 3: peptide found in DNTT (gene looked up) (ALYDKTKRIFL; listed as Homo sapiens) [compound 3] | +++

system: other tumor types (measured tumor samples); test: Presentation of the peptides on additional tumor types (LC-MS of HLA ligands); set-up: species or system human; conditions: additional tumor types on which the peptide was over-presented on more than 5% of measured tumor samples, or presented on more than 5% with ratio of geometric means tumor vs normal tissues larger than 3

Row | Substance | Other relevant organs/diseases
10 | 1: peptide found in GNA15 (gene looked up) (LLDSAVYYL; listed as Homo sapiens) [compound 1] | Melanoma, Esophageal Cancer, Urinary bladder cancer, Uterine Cancer, Gallbladder Cancer, Bile Duct Cancer
11 | 103: peptide found in NLRP3 (gene looked up) (ALGDFGIRL; listed as Homo sapiens) [compound 103] | Melanoma, Esophageal Cancer, Gallbladder Cancer, Bile Duct Cancer
12 | 9 (SLLAYLEQA; listed as Homo sapiens) [compound 9] | BRCA
13 | 119 (TLTDELAAL; listed as Homo sapiens) [compound 119] | Gallbladder Cancer, Bile Duct Cancer
14 | 79 (YLMDPDTFTF; listed as Homo sapiens) [compound 79] | SCLC
15 | 80 (YLTEALQSI; listed as Homo sapiens) [compound 80] | CLL, NHL
16 | 35 (VLFEHAVGYAL; listed as Homo sapiens) [compound 35] | CRC, CLL, NHL, BRCA, Melanoma, Urinary bladder cancer
17 | 170 (IVTEVAVGV; listed as Homo sapiens) [compound 170] | RCC, CLL, NHL, Melanoma, Uterine Cancer
18 | 122 (VLYLEEVLL; listed as Homo sapiens) [compound 122] | CLL, NHL, Uterine Cancer
19 | 105 (GVFALVTAV; listed as Homo sapiens) [compound 105] | NHL, BRCA, Melanoma, Uterine Cancer
20 | 185 (RLIPIIVLL; listed as Homo sapiens) [compound 185] | SCLC, NHL, Gallbladder Cancer, Bile Duct Cancer
21 | 45 (FLFTDVLLM; listed as Homo sapiens) [compound 45] | NHL
22 | 36 (VLGPSPSSV; listed as Homo sapiens) [compound 36] | BRCA, Melanoma
23 | 23 (GLLQPPVRIV; listed as Homo sapiens) [compound 23] | HCC
24 | 8 (LLWPGAALLV; listed as Homo sapiens) [compound 8] | NHL
25 | 138 (ILSDNLRQV; listed as Homo sapiens) [compound 138] | NSCLC, HCC, CLL, NHL, Melanoma, Esophageal Cancer, Urinary bladder cancer

Row | Substance | Other relevant organs/diseases
26 | 166 (VLFPLNLQL; listed as Homo sapiens) [compound 166] | CLL
27 | 172 (KLLWGDIMEL; listed as Homo sapiens) [compound 172] | Gallbladder Cancer, Bile Duct Cancer
28 | 155 (ILDLIQVFV; listed as Homo sapiens) [compound 155] | RCC, CLL, NHL, Melanoma, Uterine Cancer
29 | 14 (ALWWGTITL; listed as Homo sapiens) [compound 14] | CLL, NHL
30 | 29 (RLGPSVVGL; listed as Homo sapiens) [compound 29] | Melanoma
31 | 169 (VLQDPIWLL; listed as Homo sapiens) [compound 169] | CLL, NHL
32 | 143 (YLLPHILVY; listed as Homo sapiens) [compound 143] | RCC, Melanoma
33 | 107 (ALLGMLPLL; listed as Homo sapiens) [compound 107] | CLL, NHL
34 | 112 (ILRDALNQA; listed as Homo sapiens) [compound 112] | RCC, CLL, NHL, Melanoma
35 | 31 (SLFVFIPMV; listed as Homo sapiens) [compound 31] | Urinary bladder cancer
36 | 32 (SLSDRSWHL; listed as Homo sapiens) [compound 32] | Brain Cancer
37 | 115 (SLPDLTTPL; listed as Homo sapiens) [compound 115] | CLL, NHL, BRCA, Melanoma
38 | 116 (TILEILPEL; listed as Homo sapiens) [compound 116] | RCC, Melanoma, Gallbladder Cancer, Bile Duct Cancer
39 | 7 (LLWGDIMEL; listed as Homo sapiens) [compound 7] | NHL
40 | 90 (LLLDTVTSI; listed as Homo sapiens) [compound 90] | Brain Cancer, BRCA
